Here are results for nine molecules from doi:10.1101/436147.

Sequences of proteins named here, by UniProt entry; tags and fusion partners are left off. Residues count along the entry.
UniProt Q17963, whole entry: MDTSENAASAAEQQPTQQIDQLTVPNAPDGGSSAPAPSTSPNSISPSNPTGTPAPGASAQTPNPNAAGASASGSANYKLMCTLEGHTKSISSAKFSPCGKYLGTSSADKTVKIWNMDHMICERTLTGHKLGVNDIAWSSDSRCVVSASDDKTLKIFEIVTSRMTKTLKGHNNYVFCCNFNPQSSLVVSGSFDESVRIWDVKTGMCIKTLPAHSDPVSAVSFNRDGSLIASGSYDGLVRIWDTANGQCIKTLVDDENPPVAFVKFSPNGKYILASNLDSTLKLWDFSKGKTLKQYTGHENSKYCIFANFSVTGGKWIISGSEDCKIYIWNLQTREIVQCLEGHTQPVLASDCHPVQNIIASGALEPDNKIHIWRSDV
UniProt A5JYW9, whole entry: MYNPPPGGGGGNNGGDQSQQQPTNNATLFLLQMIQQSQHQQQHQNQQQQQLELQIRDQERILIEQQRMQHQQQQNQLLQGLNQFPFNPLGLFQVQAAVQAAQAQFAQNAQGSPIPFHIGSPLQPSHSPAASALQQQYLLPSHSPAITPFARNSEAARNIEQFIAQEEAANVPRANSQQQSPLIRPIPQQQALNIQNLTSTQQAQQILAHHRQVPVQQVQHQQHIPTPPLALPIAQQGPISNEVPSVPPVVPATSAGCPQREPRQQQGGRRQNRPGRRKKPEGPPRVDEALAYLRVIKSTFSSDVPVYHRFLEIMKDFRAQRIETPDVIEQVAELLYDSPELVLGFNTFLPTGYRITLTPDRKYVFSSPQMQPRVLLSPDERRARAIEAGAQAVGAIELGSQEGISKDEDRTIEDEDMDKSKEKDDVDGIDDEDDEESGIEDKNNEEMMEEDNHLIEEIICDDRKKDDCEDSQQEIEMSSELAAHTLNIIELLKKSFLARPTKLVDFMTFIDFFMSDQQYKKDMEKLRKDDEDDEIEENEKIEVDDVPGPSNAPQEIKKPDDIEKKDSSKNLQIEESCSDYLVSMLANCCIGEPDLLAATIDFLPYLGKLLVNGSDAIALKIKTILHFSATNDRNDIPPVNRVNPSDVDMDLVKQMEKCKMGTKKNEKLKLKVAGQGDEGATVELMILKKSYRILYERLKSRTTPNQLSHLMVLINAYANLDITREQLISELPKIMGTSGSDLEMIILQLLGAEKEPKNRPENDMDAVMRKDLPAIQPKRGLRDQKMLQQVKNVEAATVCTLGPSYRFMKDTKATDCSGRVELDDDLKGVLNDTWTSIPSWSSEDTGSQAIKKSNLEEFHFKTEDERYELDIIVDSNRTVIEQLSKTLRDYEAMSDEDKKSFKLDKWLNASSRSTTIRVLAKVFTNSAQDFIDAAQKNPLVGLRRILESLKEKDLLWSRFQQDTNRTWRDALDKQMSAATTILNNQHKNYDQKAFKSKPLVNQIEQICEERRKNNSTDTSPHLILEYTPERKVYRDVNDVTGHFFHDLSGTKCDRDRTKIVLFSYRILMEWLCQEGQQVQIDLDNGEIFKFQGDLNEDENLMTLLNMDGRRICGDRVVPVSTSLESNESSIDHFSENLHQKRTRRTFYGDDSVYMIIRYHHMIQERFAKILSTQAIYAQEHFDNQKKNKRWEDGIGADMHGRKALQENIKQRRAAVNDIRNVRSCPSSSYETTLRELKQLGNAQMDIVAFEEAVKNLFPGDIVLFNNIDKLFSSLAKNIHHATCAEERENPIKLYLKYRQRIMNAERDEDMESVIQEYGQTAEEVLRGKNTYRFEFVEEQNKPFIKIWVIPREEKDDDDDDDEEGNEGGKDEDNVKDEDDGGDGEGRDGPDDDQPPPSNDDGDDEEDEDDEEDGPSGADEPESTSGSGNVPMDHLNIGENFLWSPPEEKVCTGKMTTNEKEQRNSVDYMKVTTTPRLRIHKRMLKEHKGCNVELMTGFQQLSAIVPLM
UniProt A5JYW9, 1-738: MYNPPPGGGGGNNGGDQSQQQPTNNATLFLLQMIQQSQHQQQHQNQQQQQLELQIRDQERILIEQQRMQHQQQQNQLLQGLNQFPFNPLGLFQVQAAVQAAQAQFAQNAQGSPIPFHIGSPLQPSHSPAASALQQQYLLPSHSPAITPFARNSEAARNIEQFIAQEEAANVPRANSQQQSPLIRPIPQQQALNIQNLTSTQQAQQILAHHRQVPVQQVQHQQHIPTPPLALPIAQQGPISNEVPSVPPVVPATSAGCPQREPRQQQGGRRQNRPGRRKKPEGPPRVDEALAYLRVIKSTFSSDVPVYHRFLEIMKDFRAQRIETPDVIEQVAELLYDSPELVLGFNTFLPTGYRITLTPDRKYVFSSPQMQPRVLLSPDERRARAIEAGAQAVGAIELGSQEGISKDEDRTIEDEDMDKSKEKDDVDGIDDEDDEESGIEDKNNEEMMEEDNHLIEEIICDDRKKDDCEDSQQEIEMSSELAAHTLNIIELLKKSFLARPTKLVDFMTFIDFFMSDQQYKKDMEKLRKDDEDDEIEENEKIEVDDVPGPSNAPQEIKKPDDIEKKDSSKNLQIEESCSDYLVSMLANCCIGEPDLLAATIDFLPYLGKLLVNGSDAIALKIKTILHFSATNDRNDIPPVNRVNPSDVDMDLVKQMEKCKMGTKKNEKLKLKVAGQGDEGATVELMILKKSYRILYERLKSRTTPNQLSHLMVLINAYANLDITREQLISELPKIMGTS
UniProt O17695, whole entry: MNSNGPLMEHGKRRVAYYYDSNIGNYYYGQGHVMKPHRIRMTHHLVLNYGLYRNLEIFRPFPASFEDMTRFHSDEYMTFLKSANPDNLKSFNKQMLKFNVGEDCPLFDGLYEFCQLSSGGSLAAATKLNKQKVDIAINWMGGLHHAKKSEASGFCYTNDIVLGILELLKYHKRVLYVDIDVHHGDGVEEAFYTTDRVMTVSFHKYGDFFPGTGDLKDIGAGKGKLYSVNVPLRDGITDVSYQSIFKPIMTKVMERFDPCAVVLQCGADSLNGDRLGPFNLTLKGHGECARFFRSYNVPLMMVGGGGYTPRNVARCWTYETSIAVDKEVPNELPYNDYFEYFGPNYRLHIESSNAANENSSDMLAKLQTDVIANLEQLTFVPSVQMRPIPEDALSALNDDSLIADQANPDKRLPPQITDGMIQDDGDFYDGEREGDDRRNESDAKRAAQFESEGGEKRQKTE

No constants are given. Whether binding was seen depends on the method and setting. For part of these data: Binding seen in cells or lysates may run through a third protein. Some results given as binding are weak or reduced against the parent protein; the word gives no strength. For part of these data: Sequences can lack the tags named with a protein.

One assay addresses GST::CFP-1 (C. elegans) (UniProt Q9XUE7). The experiment in a line: pull-down.
The next assay deals with T1, CFP-1::GFP (C. elegans) (UniProt Q9XUE7).
T1 sequence: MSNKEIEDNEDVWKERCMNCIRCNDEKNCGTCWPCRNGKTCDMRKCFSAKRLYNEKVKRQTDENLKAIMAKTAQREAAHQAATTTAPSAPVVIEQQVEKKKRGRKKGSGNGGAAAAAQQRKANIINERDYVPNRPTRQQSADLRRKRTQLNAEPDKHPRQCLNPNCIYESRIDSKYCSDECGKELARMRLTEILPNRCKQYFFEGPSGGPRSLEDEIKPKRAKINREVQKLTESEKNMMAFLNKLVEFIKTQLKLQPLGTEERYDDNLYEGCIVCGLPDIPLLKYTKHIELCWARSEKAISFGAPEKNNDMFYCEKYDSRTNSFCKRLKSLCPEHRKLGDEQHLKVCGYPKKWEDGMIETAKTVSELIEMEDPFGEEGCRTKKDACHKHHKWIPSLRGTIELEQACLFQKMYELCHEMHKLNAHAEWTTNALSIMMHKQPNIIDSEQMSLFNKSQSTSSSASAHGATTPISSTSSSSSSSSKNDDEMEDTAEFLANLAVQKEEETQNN
Description: co-IP.

The target of a further assay is HA::WDR-5.1 (C. elegans) (UniProt Q17963). Description: co-IP.
Assay [1] has as its target SIN-3, full length, two-hybrid fusion (C. elegans) (UniProt A5JYW9). Description: two-hybrid.
In assay [2] the target is CFP-1, full length, two-hybrid fusion (C. elegans) (UniProt Q9XUE7). The experiment in a line: two-hybrid.
The target of assay [3] is MRG-1, full length, two-hybrid fusion (C. elegans) (UniProt A7DTF0). The experiment in a line: two-hybrid.

As to “HIS6::SIN-3 N-terminal domain (aa 1-738) (from UniProt A5JYW9 1-738) (domain or fragment)”, the binding result in the assay with GST::CFP-1 (C. elegans) is reported as “binds”.
Take SIN-3 (from UniProt A5JYW9 1-1507): the binding entry with CFP-1::GFP (C. elegans) is reported as “binds”.
Turning to HDA-1 (from UniProt O17695 1-461), the binding entry with CFP-1::GFP (C. elegans) and in the assay with HA::WDR-5.1 (C. elegans) was “binds” in each case.
HA::WDR-5.1 (from UniProt Q17963 1-376): in the assay with CFP-1::GFP (C. elegans), the binding entry is “binds”.

B1: CFP-1, full length, two-hybrid fusion (protein, UniProt Q9XUE7 1-508)
chain: T1 sequence
Regarding B1, the binding result in assay [1] and in assay [2] was “binds” in each case.

B2: CFP-1::GFP (protein, UniProt Q9XUE7 1-508)
chain: T1 sequence
For the molecule B2, in the assay with HA::WDR-5.1 (C. elegans), the binding result was “binds”.

B3: ASH-2 (protein, UniProt G5EFZ3 1-570)
chain: MRSSKGGRGRQAAPKTAPTTVCYCDGKRELGSVEVVCSTCLKWFHGRCLKEFHELNSNGVPFMICYTFTCKQCRPTAEDWKAKKADLVQMCVTVLATLSAERLKADGKLSAEHVPEDFTYLSLKDEIVPYMNENWYMLTAIKQKKEWHQNLAPTLLKEKNIFVQHNDDDDLFALAEKNLSLLGPLHEAVKLIGKRPIERENREPRHIELPPIEGPKTRGASKRRHAEAPVTGKKQKLAADYSSTAAPNGVQIDIPFSKDNYRYYLTEVDPNVPEDPAWNQNQSSAYVIPSFHYRELLNPTVNVSSNDRAFQLSINGNSITGFEGYSMARASHGVSKGTWYFEVNFDDQPDDSHIRIGWSQSYASLQACVGYNKFSYGWRSKHGTKFHEAKGKKYHFGGFKQGDVLGCLIHLPVDKKLQIPANLPSEKYLPVSHKGFNLISFKANYFFEVQEESADIAKTLVEMPGSYIEFFHNGKSCGKAYENIYAGAYYPSISIFKSATATMNLGPKFRNLPRGATGIHARADEQQHEQTLSDMLYLVSKEVNLDHPPRVKREDDDDVKDIKKEIKQEI
Consider B3, for which the binding result with CFP-1::GFP (C. elegans) and with HA::WDR-5.1 (C. elegans) was “binds” in each case.

B4: MRG-1 (protein, UniProt A7DTF0 1-337)
chain: MSSKKNFEVGENVACIYKGKPYDAKITDIKTNSDGKELYCVHFKGWNNRYDEKIPVGEEKDRIFKGTASEYAEKHNAELPTTALKPKKKSLAAEAPRDDRDDTPGTSKGKKAKSVTIAPVMTADDMKVELPKPLRKILIDDYDLVCRYFINIVPHEYSVDQIIEDYIKTIPVSNEQMRTVDDLLIEYEEADIKITNLALICTARGLVDYFNVTLGSSYQLLYKFERPQYNDLVKKRAMEKGIDITNPTALQDSGFRPSQEYGIVHFLRMLAKLPDYLKLTQWNDHVINRIMIGVHDLIVFLNKNHGKYYRGSSDYQGASNDYYRRSLAADDGVGANQ
For B4, the binding result in the assay with CFP-1::GFP (C. elegans) is given as “binds”.

B5: MRG-1, full length, two-hybrid fusion (protein, UniProt A7DTF0 1-337)
chain: B4 chain
Consider B5, for which the binding entry in assay [3] is given as “binds”.
